Test results: the supplement of paper PMC10849652
The list shows a part of the results.

How the values were obtained:
Experiment in all cases: log2 fold change, soluble protein after heating vs DMSO (PISA); higher = thermal stabilisation; K562 lysate, 10 uM; active = over 0.2 and 3.5 SD of the protein, either way, in both replicates (recomputed)
[1] = compound: C=CC(=O)N1CCC[C@@H](n2nc(-c3ccc(Oc4ccccc4)cc3)c3c(N)ncnc32)C1 [ibrutinib]
Method in brief: (§1)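 Pellets of K562 cells were dounce-homogenised in PBS pH 7.4 with 1 mM MgCl2, and the crude extract was held at 1 mg/mL protein for a 30 min treatment with 10 μM compound. Aliquots were heated for 3 min over 48°C-58°C and pooled before NP-40 was added to 0.5% at 4°C. The supernatant from 21,000xg for 90 min was quantified by TMTpro 16plex LC-MS/MS with channel sums equalised. Values are reported from duplicates as log-two fold change in thermal stability relative to solvent controls.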

[2] = compound: CC(=O)c1cnc2ccc(-c3cc(Cl)c(O)c(Cl)c3)nc2c1N[C@H]1CC[C@H](CN(C)C)CC1
Method in brief: as §1

[3] = compound: CC(C)(C)Cn1c(N)nc2ccc(-c3[nH]c(C(C)(C)C)nc3-c3ccc(F)cc3)nc21 [ralimetinib]
Method in brief: as §1

[4] = compound: CC(C)(O)CC(=O)NCCn1ccc2ncnc(Nc3ccc(Oc4cccc(C(F)(F)F)c4)c(Cl)c3)c21
Method in brief: as §1

[5] = compound: CC(C)C1=C2N=C(C=C(N2N=C1)NCC3=CC=CC=C3)NCCCCCCN
Method in brief: as §1

[6] = compound: CC1=C(C(CC(=O)N1)C2=CC=C(C=C2)C(F)(F)F)C(=O)NC3=C(C=C4C(=C3)C=NN4)F
Method in brief: as §1

[7] = compound: CC1=C(C2=C(C=C1)C(=O)C3=CC=CC=C3N2CCCN)C
Method in brief: as §1

[8] = compound: CC1=C(C=C(C=C1)NC(=O)C2=CC(=CC=C2)C(C)(C)C#N)NC3=CC4=C(C=C3)N=CN(C4=O)C
Method in brief: as §1

[9] = compound: CC1=C(C=C(C=C1)NC(=O)C2=CC(=CC=C2)N(C)C)NC(=O)C3=CC=C(C=C3)O
Method in brief: as §1

[10] = compound: CC1=CC=C(C=C1)SC2=C3C=C(SC3=CN=C2)C(=O)N
Method in brief: as §1

Measured: log2 fold change

PPP2R1A (UniProt P30153)
inactive: [1] 0.019 | [2] 0.003 | [3] 0.016 | [4] 0.003 | [5] -0.005 | [6] 0.005 | [7] 0.016 | [8] -0.027 | [9] 0.009 | [10] 0.009

PPWD1 (UniProt Q96BP3)
inactive: [1] 0.049 | [2] -0.026 | [3] 0.031 | [4] -0.013 | [5] 0.003 | [6] 0.006 | [7] 0.015 | [8] -0.012 | [9] 0.022 | [10] 0.003

PPP2R2A isoform 2 (UniProt P63151)
inactive: [1] 0.01 | [2] -0.003 | [3] 0.013 | [4] -0.051 | [5] 0.005 | [6] -0.013 | [7] 0.001 | [8] -0.006 | [9] -0.015 | [10] -0.016

PPIP5K2 (UniProt O43314)
inactive: [1] 0.008 | [2] -0.002 | [3] 0.006 | [4] -0.022 | [5] 0.009 | [6] -0.018 | [7] -0.013 | [8] -0.027 | [9] 0.004 | [10] 0.041

PPP4R3B (UniProt Q5MIZ7)
inactive: [1] 0.02 | [2] -0.037 | [3] 0.012 | [4] 0.023 | [5] -0.013 | [6] 0.008 | [7] 0.018 | [8] 0.024 | [9] 0.018 | [10] -0.011

PRKCQ (UniProt Q04759)
inactive: [1] 0.011 | [2] 0.167 | [3] -0.022 | [4] 0.058 | [5] 0.012 | [6] -0.01 | [7] 0.014 | [8] 0.02 | [9] 0.058 | [10] 0.037

PPP2CB (UniProt P62714)
inactive: [1] 0.01 | [2] -0.014 | [3] -0.009 | [4] -0.015 | [5] -0.008 | [6] 0.007 | [7] -0.024 | [8] 0.006 | [9] 0.016 | [10] 0

PRNP (UniProt P04156)
inactive: [1] -0.099 | [2] -0.034 | [3] 0.046 | [4] -0.034 | [5] 0.116 | [6] 0.006 | [7] -0.093 | [8] -0.014 | [9] 0.03 | [10] 0.035

PRCP (UniProt P42785)
inactive: [1] 0.016 | [2] 0.017 | [3] -0.058 | [4] -0.099 | [5] -0.02 | [6] 0.033 | [7] 0.001 | [8] -0.002 | [9] -0.011 | [10] 0.016

PRMT9 (UniProt Q6P2P2)
inactive: [1] 0.036 | [2] -0.002 | [3] -0.007 | [4] -0.02 | [5] -0.016 | [6] 0.002 | [7] 0.017 | [8] -0.01 | [9] 0 | [10] 0.002

PRMT7 (UniProt Q9NVM4)
inactive: [1] 0.043 | [2] -0.016 | [3] 0.042 | [4] -0.01 | [5] 0.017 | [6] 0 | [7] -0.008 | [8] 0.013 | [9] 0.031 | [10] 0.008

PPP1R7 (UniProt Q15435)
inactive: [1] 0.012 | [2] 0.02 | [3] 0.009 | [4] -0.008 | [5] 0.014 | [6] -0.032 | [7] 0.009 | [8] 0.017 | [9] 0.009 | [10] 0.013

PRMT6 (UniProt Q96LA8)
inactive: [1] -0.063 | [2] 0.059 | [3] -0.005 | [4] -0.003 | [5] -0.035 | [6] 0.007 | [7] 0.016 | [8] -0.027 | [9] 0.043 | [10] 0

PPM1F (UniProt P49593)
inactive: [1] -0.009 | [2] 0.012 | [3] -0.005 | [4] 0.028 | [5] -0.027 | [6] 0 | [7] -0.008 | [8] -0.004 | [9] -0.049 | [10] 0.015

PPP1CB (UniProt P62140)
inactive: [1] -0.003 | [2] -0.014 | [3] 0.049 | [4] 0.006 | [5] -0.011 | [6] -0.014 | [7] -0.009 | [8] -0.04 | [9] 0.008 | [10] -0.008

PROCR (UniProt Q9UNN8)
inactive: [1] -0.09 | [2] -0.008 | [3] -0.015 | [4] 0.038 | [5] -0.102 | [6] 0.064 | [7] -0.137 | [8] -0.044 | [9] -0.08 | [10] -0.022

PREB (UniProt Q9HCU5)
inactive: [1] -0.004 | [2] -0.005 | [3] 0.012 | [4] -0.013 | [5] -0.006 | [6] 0.033 | [7] -0.001 | [8] 0.051 | [9] 0.008 | [10] -0.016

PRKCB isoform 2 (UniProt P05771)
inactive: [1] -0.017 | [3] 0.02 | [4] 0 | [5] 0.013 | [6] 0.002 | [7] -0.055 | [8] 0.042 | [9] -0.009 | [10] -0.113
active: [2] 0.548

PRKD2 isoform 3 (UniProt Q9BZL6)
inactive: [1] 0.026 | [2] -0.065 | [3] 0.019 | [4] -0.122 | [5] 0.045 | [6] 0.04 | [7] -0.111 | [8] -0.034 | [9] 0.046 | [10] 0.007

PPM1B (UniProt O75688)
inactive: [1] -0.014 | [2] -0.025 | [3] -0.022 | [4] -0.01 | [5] 0.007 | [6] -0.012 | [7] -0.069 | [8] 0.034 | [9] -0.002 | [10] -0.014

PRMT8 (UniProt Q9NR22)
inactive: [1] -0.073 | [2] -0.012 | [3] 0.036 | [4] -0.018 | [5] 0.003 | [6] -0.028 | [7] 0.009 | [8] 0.032 | [9] 0.002 | [10] 0.007

PRIM2 (UniProt P49643)
inactive: [1] 0.067 | [2] -0.05 | [3] 0.041 | [4] -0.025 | [5] -0.001 | [6] 0.015 | [7] -0.043 | [8] 0.028 | [9] 0.054 | [10] 0.009

PRPF39 (UniProt Q86UA1)
inactive: [1] -0.001 | [2] 0.013 | [3] 0.006 | [4] -0.004 | [5] -0.007 | [6] 0 | [7] -0.053 | [8] 0.009 | [9] 0.023 | [10] 0.034

PRKAR2B (UniProt P31323)
inactive: [1] -0.017 | [2] 0.008 | [3] 0.007 | [4] -0.01 | [5] 0.022 | [6] 0.015 | [7] -0.004 | [8] 0.027 | [9] 0.031 | [10] 0.03

PRKAG2 (UniProt Q9UGJ0)
inactive: [1] -0.007 | [2] 0.05 | [3] 0.044 | [4] 0.038 | [5] -0.013 | [6] 0.034 | [7] 0.053 | [8] -0.031 | [9] -0.035 | [10] -0.021

PPP2R5A (UniProt Q15172)
inactive: [1] -0.004 | [2] 0.02 | [3] 0.022 | [4] -0.019 | [5] 0.012 | [6] 0.06 | [7] 0.033 | [8] -0.011 | [9] 0.015 | [10] 0.013

PRDX2 (UniProt P32119)
inactive: [1] 0.013 | [2] 0.018 | [3] -0.073 | [4] 0.002 | [5] -0.007 | [6] -0.016 | [7] -0.026 | [8] 0.004 | [9] 0.007 | [10] -0.015

Seven successive entries already listed, for reference:
PPP2CB (UniProt P62714)
inactive: [1] 0.01 | [2] -0.014 | [3] -0.009 | [4] -0.015 | [5] -0.008 | [6] 0.007 | [7] -0.024 | [8] 0.006 | [9] 0.016 | [10] 0

PRNP (UniProt P04156)
inactive: [1] -0.099 | [2] -0.034 | [3] 0.046 | [4] -0.034 | [5] 0.116 | [6] 0.006 | [7] -0.093 | [8] -0.014 | [9] 0.03 | [10] 0.035

PRCP (UniProt P42785)
inactive: [1] 0.016 | [2] 0.017 | [3] -0.058 | [4] -0.099 | [5] -0.02 | [6] 0.033 | [7] 0.001 | [8] -0.002 | [9] -0.011 | [10] 0.016

PRMT9 (UniProt Q6P2P2)
inactive: [1] 0.036 | [2] -0.002 | [3] -0.007 | [4] -0.02 | [5] -0.016 | [6] 0.002 | [7] 0.017 | [8] -0.01 | [9] 0 | [10] 0.002

PRMT7 (UniProt Q9NVM4)
inactive: [1] 0.043 | [2] -0.016 | [3] 0.042 | [4] -0.01 | [5] 0.017 | [6] 0 | [7] -0.008 | [8] 0.013 | [9] 0.031 | [10] 0.008

PPP1R7 (UniProt Q15435)
inactive: [1] 0.012 | [2] 0.02 | [3] 0.009 | [4] -0.008 | [5] 0.014 | [6] -0.032 | [7] 0.009 | [8] 0.017 | [9] 0.009 | [10] 0.013

PRMT6 (UniProt Q96LA8)
inactive: [1] -0.063 | [2] 0.059 | [3] -0.005 | [4] -0.003 | [5] -0.035 | [6] 0.007 | [7] 0.016 | [8] -0.027 | [9] 0.043 | [10] 0

The listing continues:

PPP6R3 isoform 5 (UniProt Q5H9R7)
inactive: [1] 0.014 | [2] -0.007 | [3] -0.002 | [4] -0.006 | [5] -0.029 | [6] -0.015 | [7] -0.013 | [8] 0.03 | [9] 0.025 | [10] -0.015

PPM1G (UniProt O15355)
inactive: [1] -0.006 | [2] 0.017 | [3] 0.009 | [4] 0.024 | [5] -0.018 | [6] -0.007 | [7] 0 | [8] -0.018 | [9] 0 | [10] -0.007

PPT2 isoform 3 (UniProt Q9UMR5)
inactive: [1] 0.03 | [2] 0.068 | [3] -0.001 | [4] -0.022 | [5] -0.019 | [6] -0.026 | [7] 0.002 | [8] -0.038 | [9] -0.015 | [10] -0.013
